Test results: article PMC8997990

Chains of the proteins cited; added tags and fusions are not shown. Residues count along the entry.
UniProt Q12778, 158-258: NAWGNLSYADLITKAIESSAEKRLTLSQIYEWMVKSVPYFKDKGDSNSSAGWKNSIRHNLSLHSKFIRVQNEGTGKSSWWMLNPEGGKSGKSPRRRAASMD

Legend:
Test in all cases: EMSA
[1] = target: GST-FOXO1-FK (forkhead domain) (UniProt Q12778); conditions: FK domain alone, no nuclear extract; 20 mM Tris pH 7.5, 2 mM NaCl, 2 mM EDTA, 10% glycerol, 2 mM DTT, 0.2 ug poly(dI/dC), 20 min at 4 C; 7% native gel; recombinant protein; residues 158-258; protein details: N-terminal GST; label: 3' biotin
GST = GST alone, no nuclear extract (legend gives lane 4, also listed as a GST + extract lane); 20 mM Tris pH 7.5, 2 mM NaCl, 2 mM EDTA, 10% glycerol, 2 mM DTT, 0.2 ug poly(dI/dC), 20 min at 4 C; 7% native gel; recombinant protein; label: 3' biotin
GST-FOXO1 = GST-FOXO1 (UniProt Q12778); conditions: FOXO1 alone, no nuclear extract; 20 mM Tris pH 7.5, 2 mM NaCl, 2 mM EDTA, 10% glycerol, 2 mM DTT, 0.2 ug poly(dI/dC), 20 min at 4 C; 7% native gel; recombinant protein; protein details: N-terminal GST; label: 3' biotin

Measured: binding result

TAGGCCAAGGGCCTTGGGGCTCT (double strand) [mouse Sftpc promoter -186/-163 NKX2.1 site probe]
no binding: all assays above

The exact form of at least one protein or probe is not confirmed. A negative result means that nothing was seen under these conditions.
